# Measurements reported in PubChem BioAssay AID1259331 (Drosophila RNAi Screening Center, 2017).
# Screen: 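Knock-downs that alter ATP level after a high zinc chloride dose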 (primary screen)
# System: Drosophila S2R+ cells
# Knock-down reagent: long dsRNA against Drosophila genes
# Time to read-out: 5 days (4 days knock-down, then 1 day zinc)
# Treatment: zinc chloride at 15 mM final level for 1 day
# Detection: 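Total cellular ATP measured by luciferase luminescence as a viability proxy, turned into Z scores from three plate copies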
# Scale: mean Z score: higher = more ATP than other wells, better survival under zinc; ATP luminescence: higher = more ATP, more viable cells
# Hit rule: 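Hit when the absolute Z score is greater than 1.5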
# Calls: active = hit, ATP up or down; inactive = not a hit
# In all, the deposit lists about 3,100 reagents; this is a part drawn at random. 126 of them (4.1%) were called active. 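Calls are per reagent; zinc was so toxic that few knock-downs lowered ATP further, so most hits raise ATP.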 Raw values vary from plate to plate and are shown uncorrected. Reagents against one gene are numbered here. Reagent sequences are not shown. The record does not give: the amount of reagent.
target,reagent,mean Z score,"ATP luminescence, replicate 1","ATP luminescence, replicate 2",call
ppk8,1,-0.233,70527,57815,inactive
ppk8,2,0.572,62175,66531,inactive
Lgr3,1,-0.447,43297,40022,inactive
Lgr3,2,0.883,44825,68606,inactive
CG31787,1,-0.108,40965,40793,inactive
Tmep,1,-0.419,28639,28587,inactive
Tmep,2,2.8,1.04e5,91746,active
cry,1,-0.15,36182,52041,inactive
cry,2,0.495,67183,67989,inactive
Psn,1,0.168,76736,65005,inactive
Ir41a,1,-0.137,34176,42662,inactive
Ir41a,2,-0.134,50858,39028,inactive
Gr32a,1,-0.532,44377,41621,inactive
Gr32a,2,-0.0479,40738,59287,inactive
Ir75a,1,-0.122,75913,58525,inactive
Ir75a,2,1.57,74626,72088,active

4 entries from above, reformatted.
| target | reagent | mean Z score | ATP luminescence, replicate 1 | ATP luminescence, replicate 2 | call |
| --- | --- | --- | --- | --- | --- |
| ppk8 | 1 | -0.233 | 70527 | 57815 | inactive |
| ppk8 | 2 | 0.572 | 62175 | 66531 | inactive |
| Lgr3 | 1 | -0.447 | 43297 | 40022 | inactive |
| Lgr3 | 2 | 0.883 | 44825 | 68606 | inactive |

More records:
target,reagent,mean Z score,"ATP luminescence, replicate 1","ATP luminescence, replicate 2",call
Cln7,1,-0.466,28125,27130,inactive
CG3829,1,-0.477,28245,30233,inactive
cac,1,-0.0643,39936,47839,inactive
cac,2,-0.038,43828,48185,inactive
HisT,1,0.0519,41891,42371,inactive
HisT,2,-0.626,26668,27302,inactive
CG32579,1,0.419,70356,75710,inactive
CG32579,2,-0.00284,66240,60495,inactive
CG16723,1,-0.0807,34725,58043,inactive
CG16723,2,-1.04,53721,36634,inactive
CG2003,1,0.26,70116,70599,inactive
CG2003,2,-0.0132,52255,60049,inactive
